Results on 14 compounds are retold here after PubChem BioAssay AID1487 (National Center for Advancing Translational Sciences (NCATS), 2009).

This assay in a line: qHTS Assay for Modulators of Lamin A Splicing. The settings on record: HeLa LMNA splicing GFP/RFP minigene ratio, 48 h. The source says: NCGC Assay Overview: Hutchinson-Gilford Progeria Syndrome (HGPS) is a pediatric premature aging disease caused by a spontaneous mutation in the lamin A/C (LMNA) gene. The mutation activates a cryptic splice site in the LMNA pre-mRNA which results in production of a pre-lamin A protein that cannot be processed properly. The mutant protein accumulates in the nucleus and negatively affects numerous cellular functions. Correction of the splicing defect in HGPS patient cells using a targeted oligonucleotide (exo11) leads to reversal of the cellular disease phenotypes. To identify small molecule modulators of aberrant LMNA splicing, a homogenous assay was constructed in HeLa cells that used a GFP containing minigene to report on correction of aberrant splicing in lamin A and a RFP (DsRed2) to report on cell viability, uniformity and nonspecific effects on the assay signal. This assay was adapted to laser-scanning microplate cytometry (Acumen, TTP Labtech) where miniaturization of the assay to a 1,536-well plate format was possible. References: Bowen, W. P.; Wylie, P. G. Application of Laser-Scanning Fluorescence Microplate Cytometry in High Content Screening. Assay Drug Dev Technol 2006;4:209-221. Scaffidi P, Misteli T. Reversal of the cellular phenotype in the premature aging disease Hutchinson-Gilford progeria syndrome. Nat.
NCGC Assay Protocol Summary: Reagents/Controls: Stable clones expressing DsRed2 and lamin A-EGFP were generated by Cell and Molecular Technologies in S3 HeLa cells. HeLa cells were prepared for the assay when they were 70-90% confluent. The cells were counted and resuspended in Opti-MEM I (no phenol red; Gibco), 2% FBS, 1% penicillin/ streptomycin (Gibco) at concentration of 120 cells/uL concentration. The suspension was passed through a Falcon basket filter with pore size 40um (Beckton Dickson). Control titrations: column […] 1536-well plate contained a sixteen point titration (1:2 dilutions) in duplicate of ancitabine (Sigma: A8598) beginning at 40 uM final concentration. Column 2 contained a sixteen point titration (1:2 dilutions) of cycloheximide beginning at 1.4 mM final concentration. Column 3 contained ancitabine at 40 uM and column 4 contained was the vehicle control (0.5% DMSO final concentration). Assay Steps: 5 uL of HeLa cells were plated in Aurora LoBase black clear bottom (cyclic-olefin polymer) 1536-well plates at a final density of 600 cells/well. Controls and library compounds were added with a 1536-well pin array using the Kalypsys pin-tool. The plates were then incubated for 48 hrs in a cell-culture incubator (37 °C; 5% CO2, 98% humidity). Following incubation the plates were read on the Acumen Explorer using the 488 nm laser. Data was collected on objects between 10 and 100 um in size. Cell objects were defined by a 15 um width x 10 um depth filter. The ratio of the total object intensity in PMT1 (500-530 nm emission; GFP) over PMT3 (575-640 nm emission; RFP) was calculated for analysis. Keywords: NIH Roadmap, MLSCN, MLI, MLSMR, qHTS, NCGC, lamin A, Progeria, RNA splicing.

Where [1] appears, read: measured here: RFP viability control channel.
Setting [2] is: measured here: GFP splicing reporter channel.

Structures are written as SMILES. Values joined by “and” are separate entries in the source; they are usually repeats but may differ in a detail not shown here. Equal entries are not always repeated. The list shows a part of the results. The main result of the screen is listed elsewhere. These columns were measured beside it and carry no call. Most of these compounds were active or inconclusive in the main read-out, so they are no random draw. Potencies come from curve fits of mixed quality, noted in brackets.

With `Cc1ccc(NC(=O)Cn2c(=O)oc3ccccc32)cc1C`, the AC50 – broadly, the midpoint of the concentration-response curve, whichever way the signal moves – under setting [1] was 1.12 µM [falling, full curve]. On to `CN(C)[C@@H]1C(=O)C(C(N)=O)=C(O)[C@@]2(O)C(=O)C3=C(O)c4c(O)cccc4[C@@](C)(O)[C@H]3[C@H](O)[C@@H]12`, for which the concentration at half-maximal activity (AC50) under setting [1] is 0.000794 µM [rising, full curve, poor fit]. For the compound `CCOC(=O)C(NC(C)=O)C(OC(C)=O)c1cccc(N(CCCl)CCCl)c1` (centres undefined), under setting [1], the AC50 was 12.6 µM [rising, single point]. In the case of `CN(C(=O)CNC(=O)OCc1ccccc1)c1ccc(Br)cc1C(=O)c1ccccc1Cl`, the AC50 under setting [1] is 20 µM [rising, single point].

In the case of `CN1C(=O)CCS(=O)(=O)C1c1ccc(Cl)cc1` (centres undefined), the AC50 is 35.5 µM [falling, single point] under setting [2]; 35.5 µM [falling, single point] and 5.62 µM [falling, single point] under setting [1].

As for `O=C(CSC1c2ccccc2-c2ccccc21)N/N=C/c1ccccc1C(=O)O`, under setting [1], the AC50 was 0.447 µM [falling, partial curve]. Take `C[C@]12C=CC(=O)C=C1CC[C@@H]1C2CC[C@]2(C)OC(=O)CCC12` (some centres undefined): the AC50 under setting [2] is 1.58 µM [falling, partial curve, poor fit] and the AC50 under setting [1] is 35.5 µM [falling, single point]. `Cc1nc2c(C(=O)N3CCC4(CC3)OCCO4)cnn2c(C)c1Cc1cccc(Cl)c1`: the AC50 under setting [2] is 3.16 µM [rising, single point]. Turning to `N#CSCC(=O)N1c2ccccc2CCc2ccccc21`, under setting [1], the AC50 was 28.2 µM [rising, single point].

For `CNC1CC(N)[C@H](O)[C@@H](O[C@@H]2OC(CO)C3OC4(OC(C(N)CO)C(O)C(O)C4O)O[C@@H]3[C@H]2O)C1O` (some centres undefined), the AC50 is, setting by setting: under setting [2], 14.1 µM [rising, partial curve]; under setting [1], 0.708 µM [rising, full curve]. With `COc1cccc(N2C(=O)NC(=O)/C(=C\c3ccc([N+](=O)[O-])s3)C2=O)c1`, the AC50 under setting [1] is 0.00891 µM [rising, full curve, poor fit]. Consider `Cc1c(C=O)c2ccccc2n1Cc1ccc([N+](=O)[O-])cc1`, for which the AC50 was 12.6 µM [rising, single point] under setting [2] and 17.8 µM [rising, single point] under setting [1]. Consider `O=C(O)[C@@H]1CCN1`, for which the AC50 under setting [2] was 0.01 µM [falling, full curve, poor fit] and the AC50 under setting [1] is 5.62 µM [falling, single point]. For the compound `CCN(CC)C(=O)N[C@@H]1C[C@H]2c3cccc4[nH]cc(c34)C[C@@H]2N(C)C1`, the AC50 under setting [1] is 3.16 µM [falling, single point].
